Reference: publication PMC8599684
These are yes or no findings as the source states them, for the method shown. A result given as binding can be weak or reduced; the word gives no strength.

By UniProt entry, the sequences of proteins in these tests, tags left out. Where a name states a change or a piece, a line headed by the entry shows the natural chain unless it says otherwise. Residues count along the entry.
UniProt Q9NV58: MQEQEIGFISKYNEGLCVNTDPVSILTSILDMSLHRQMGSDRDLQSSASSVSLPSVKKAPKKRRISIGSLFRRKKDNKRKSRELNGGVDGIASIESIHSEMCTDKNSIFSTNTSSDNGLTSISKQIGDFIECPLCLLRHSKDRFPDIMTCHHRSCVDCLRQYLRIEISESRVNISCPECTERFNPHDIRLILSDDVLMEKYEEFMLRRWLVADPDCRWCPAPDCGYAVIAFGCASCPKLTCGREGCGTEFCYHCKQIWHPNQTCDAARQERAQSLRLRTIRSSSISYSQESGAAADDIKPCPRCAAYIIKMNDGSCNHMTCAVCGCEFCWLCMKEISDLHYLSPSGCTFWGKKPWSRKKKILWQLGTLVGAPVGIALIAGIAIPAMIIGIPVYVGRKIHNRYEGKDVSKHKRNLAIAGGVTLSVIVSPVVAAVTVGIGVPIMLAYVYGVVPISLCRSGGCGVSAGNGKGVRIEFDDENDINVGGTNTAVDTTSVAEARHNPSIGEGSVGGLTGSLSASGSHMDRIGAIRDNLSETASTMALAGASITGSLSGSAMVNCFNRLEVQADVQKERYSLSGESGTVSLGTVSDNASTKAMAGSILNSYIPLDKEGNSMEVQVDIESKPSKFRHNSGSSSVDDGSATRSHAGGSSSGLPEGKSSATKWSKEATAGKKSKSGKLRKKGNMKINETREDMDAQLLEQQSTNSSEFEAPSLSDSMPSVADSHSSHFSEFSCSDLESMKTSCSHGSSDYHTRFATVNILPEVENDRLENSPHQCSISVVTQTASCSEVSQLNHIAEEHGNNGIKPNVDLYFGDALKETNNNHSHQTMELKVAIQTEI
UniProt Q99728, residues 26-327: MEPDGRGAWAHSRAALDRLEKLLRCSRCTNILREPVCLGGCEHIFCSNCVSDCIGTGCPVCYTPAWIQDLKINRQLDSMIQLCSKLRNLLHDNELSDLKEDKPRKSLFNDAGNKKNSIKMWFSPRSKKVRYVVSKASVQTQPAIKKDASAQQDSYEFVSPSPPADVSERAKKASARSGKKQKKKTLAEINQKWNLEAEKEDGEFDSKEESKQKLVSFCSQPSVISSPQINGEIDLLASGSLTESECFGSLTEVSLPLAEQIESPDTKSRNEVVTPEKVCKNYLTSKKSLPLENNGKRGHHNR

Target: GST-RNF19A (human) (UniProt Q9NV58)
Experiment: pull-down; GST-RNF19A proteins immobilised on GST beads, incubated with purified His-tagged proteins or His alone; western blot; both purified

binding: binds
Substance: His-BARD1 (26-327) (from UniProt Q99728 26-327) (domain or fragment)
